{"source": "paper PMC6997364", "molecules": {"B1": {"name": "VSV-Rvs161 (protein, UniProt P25343 1-265)", "chain": "MSWEGFKKAINRAGHSVIIKNVDKTIDKEYDMEERRYKVLQRAGEALQKEAKGFLDSLRAVTASQTTIAEVISNLYDDSKYVAGGGYNVGNYYLQCVQDFDSETVKQLDGPLRETVLDPITKFSTYFKEIEEAIKKRDHKKQDFDAAKAKVRRLVDKPAKDASKLPRAEKELSLAKDIFENLNNQLKTELPQLVSLRVPYFDPSFEALIKIQLRFCTDGYTRLAQIQQYLDQQSRDDYANGLLDTKIEELLGQMTSLDICALGIK"}, "B2": {"name": "GFP-Gvp36 (protein, UniProt P40531 2-326)", "chain": "SFNAFASSLSKKLQEISTSVSEKTQELPSLAQSTQRMVQERLGQVTDISQLPREYTELEDKVDTIKLIYNHFLGVTAIYENGSYDYPKYINESVNEFSRSVASKLTELTHATSASEAQNILVAPGPIKEPKTLNYALSKVALNSSECLNKMFPTEEQPLASALLQFSDVQAKIAQARIQQDTLIQTKFNKNLRERLSFEIGKADKCRKDVHSMRLRYDVARTNLANNKKPEKEASLRVQMETLEDQFAQVTEDATVCLQEVISHANFSEDLKELAKAQAEYFETSAGLMKEFLSNSFAEEPEAKPEVAEEEKPQTAISMNDEDDA"}, "B3": {"name": "Gyl1 fused with the VN or VC part of Venus YFP (protein, UniProt Q04322 1-720)", "chain": "MNSNEDIHEERIEVPRTPHQTQPEKDSDRIALRDEISVPEGDEKAYSDEKVEMATTNASSNFGSNESAKDGESIGAFSNPHEALMQSKLREESQSKTILPSDDLSQQLETEESKVEEALKRITSPPLPPRADCIEESASALKSSLPPVLAGNKNDQAPLDRPQLPPRQVVNAETLHLKAPHGNATPSKSPTSAVGNSSSSTPPTLPPRRIEDPLDLAAQKHFLASTFKRNMLFYKSEDNSIKCDLDKNILNLKEDSKKINNNEIPEEVSSFWLKVIGDYQNILINDIETLHFQLSRGIPAAYRLVVWQLVSYAKSKSFDPIYETYLTEMAPFDVQEFENQLKMMDEVPSEYVKRISNVLKAYLLFDPECEFSTDIAYIINMILDVCEEEANAFGLLVRLMKVYGLRLLFLPSASEIDILCYKFDRLVEEFYPEIHNHMVEKGVRSSMFLPGFFTTLFQKKLPTEIQPRIGDMVFLEGIDSIMRILATLLSNSRDHLLKMGFDDMLELLKSGLLDAYIKQNDGTRGDTLLSNECMDKLLQDSMMKVAITPKTMKKYSSEYEEIHRLDNEKEVQYKSITEKNLHLQKHVRKLENDYTSLNREHVTIANELVKNRLNIESVLNENNGYKLQILDLKKKLDSEKKKQVLGVYVPNDLKKDLEETMKKNTQVMDENLKLQDRISELERLIEEIKTANKNGTLFEYSNSKNNPLGAGWSGFKKVFK"}}, "key": {"[1]": {"target": "VSV-Rvs167 (S. cerevisiae) (UniProt P39743)", "experiment": "co-IP; total extracts of log-phase yeast cells co-expressing the tagged proteins (rvs167Δrvs161Δ, rvs167Δgvp36Δ, rvs161Δgvp36Δ, rvs167Δ, rvs167Δrvs161Δgvp36Δ or diploid cells); lysis buffer 20 mM Tris-HCl pH 7.5, 100 mM NaCl, 1 mM EDTA, 0.5% Triton X-100; anti-Myc, anti-HA, anti-GFP or anti-VSV antibody and protein G-agarose, 4 °C; washes up to 300 mM NaCl"}, "[2]": {"target": "T1, Gyp5-Myc (S. cerevisiae) (UniProt Q12344)", "T1 sequence": "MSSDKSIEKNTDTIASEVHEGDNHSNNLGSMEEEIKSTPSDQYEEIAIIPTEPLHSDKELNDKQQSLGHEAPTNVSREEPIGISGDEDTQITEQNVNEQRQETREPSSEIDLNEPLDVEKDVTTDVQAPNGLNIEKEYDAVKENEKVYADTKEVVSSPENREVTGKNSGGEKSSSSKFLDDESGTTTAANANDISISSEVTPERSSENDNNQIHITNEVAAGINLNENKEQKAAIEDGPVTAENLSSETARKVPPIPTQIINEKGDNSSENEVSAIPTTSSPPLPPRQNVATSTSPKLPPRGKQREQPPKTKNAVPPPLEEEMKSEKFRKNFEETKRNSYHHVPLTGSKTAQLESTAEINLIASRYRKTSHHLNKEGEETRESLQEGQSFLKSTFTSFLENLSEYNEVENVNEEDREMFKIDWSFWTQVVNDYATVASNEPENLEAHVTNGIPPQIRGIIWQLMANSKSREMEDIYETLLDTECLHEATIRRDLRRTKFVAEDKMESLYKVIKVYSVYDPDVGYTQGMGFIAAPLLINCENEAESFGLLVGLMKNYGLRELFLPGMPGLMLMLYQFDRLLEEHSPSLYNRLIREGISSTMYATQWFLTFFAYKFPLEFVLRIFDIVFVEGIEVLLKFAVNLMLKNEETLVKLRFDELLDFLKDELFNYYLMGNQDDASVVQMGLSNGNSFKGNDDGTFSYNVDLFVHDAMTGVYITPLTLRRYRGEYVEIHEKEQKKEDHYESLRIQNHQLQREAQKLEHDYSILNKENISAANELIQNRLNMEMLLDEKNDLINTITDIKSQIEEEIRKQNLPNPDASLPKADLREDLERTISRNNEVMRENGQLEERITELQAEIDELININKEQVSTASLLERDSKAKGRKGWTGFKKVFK", "experiment": "co-IP; rvs167Δrvs161Δ cells synchronised by α-factor and harvested when small-budded cells reached 80%; same lysis and precipitation as for log-phase cells"}, "[3]": {"target": "T2, VSV-Rvs161 (S. cerevisiae) (UniProt P25343)", "T2 sequence": "B1 chain", "experiment": "co-IP; rvs167Δrvs161Δ cells synchronised by α-factor and harvested when small-budded cells reached 80%; same lysis and precipitation as for log-phase cells"}, "[4]": {"target": "GFP-Rvs167 (S. cerevisiae) (UniProt P39743)", "experiment": "co-IP; rvs167Δrvs161Δ cells synchronised by α-factor and harvested when small-budded cells reached 80%; same lysis and precipitation as for log-phase cells"}, "[5]": {"target": "T3, Gyl1-HA (S. cerevisiae) (UniProt Q04322)", "T3 sequence": "B3 chain", "experiment": "co-IP; total extracts of log-phase yeast cells co-expressing the tagged proteins (rvs167Δrvs161Δ, rvs167Δgvp36Δ, rvs161Δgvp36Δ, rvs167Δ, rvs167Δrvs161Δgvp36Δ or diploid cells); lysis buffer 20 mM Tris-HCl pH 7.5, 100 mM NaCl, 1 mM EDTA, 0.5% Triton X-100; anti-Myc, anti-HA, anti-GFP or anti-VSV antibody and protein G-agarose, 4 °C; washes up to 300 mM NaCl"}, "[6]": {"target": "T1, Gyp5-Myc (S. cerevisiae)", "experiment": "co-IP; total extracts of log-phase yeast cells co-expressing the tagged proteins (rvs167Δrvs161Δ, rvs167Δgvp36Δ, rvs161Δgvp36Δ, rvs167Δ, rvs167Δrvs161Δgvp36Δ or diploid cells); lysis buffer 20 mM Tris-HCl pH 7.5, 100 mM NaCl, 1 mM EDTA, 0.5% Triton X-100; anti-Myc, anti-HA, anti-GFP or anti-VSV antibody and protein G-agarose, 4 °C; washes up to 300 mM NaCl"}, "[7]": {"target": "T2, VSV-Rvs161 (S. cerevisiae)", "experiment": "co-IP; total extracts of log-phase yeast cells co-expressing the tagged proteins (rvs167Δrvs161Δ, rvs167Δgvp36Δ, rvs161Δgvp36Δ, rvs167Δ, rvs167Δrvs161Δgvp36Δ or diploid cells); lysis buffer 20 mM Tris-HCl pH 7.5, 100 mM NaCl, 1 mM EDTA, 0.5% Triton X-100; anti-Myc, anti-HA, anti-GFP or anti-VSV antibody and protein G-agarose, 4 °C; washes up to 300 mM NaCl"}, "[8]": {"target": "VSV-Rvs167 (S. cerevisiae) (UniProt P39743)", "experiment": "co-IP; total extracts of log-phase yeast cells co-expressing the tagged proteins (rvs167Δrvs161Δ, rvs167Δgvp36Δ, rvs161Δgvp36Δ, rvs167Δ, rvs167Δrvs161Δgvp36Δ or diploid cells); lysis buffer 20 mM Tris-HCl pH 7.5, 100 mM NaCl, 1 mM EDTA, 0.5% Triton X-100; anti-Myc, anti-HA, anti-GFP or anti-VSV antibody and protein G-agarose, 4 °C; washes up to 300 mM NaCl", "remark": "listed apart in the source"}, "[9]": {"target": "Gyl1 fused with the VN or VC part of Venus YFP (S. cerevisiae) (UniProt Q04322)", "experiment": "split reporter; BiFC in living diploid yeast cells, scored only at the tip of small buds (ratio of bud width to bud neck width ≤ 1)"}}, "note": "Like-named read-outs stand apart in the source and are kept apart here. No constants are given. Whether binding was seen depends on the method and setting. In cells and extracts the contact can be indirect. Some binding calls cover weakened binding; strength is not graded here. For part of these data: Where a sequence is shown, tags or fusion partners need not be part of it."}
{"molecule": "GFP-Rvs167 (from UniProt P39743 1-482)", "values": [{"measurement": "binding", "setting": "[1]", "result": "binds"}, {"measurement": "binding", "setting": "[2]", "result": "binds"}, {"measurement": "binding", "setting": "[3]", "result": "binds"}]}
{"molecule": "B1", "values": [{"measurement": "binding", "setting": "[4]", "result": "binds"}, {"measurement": "binding", "setting": "[5]", "result": "binds"}, {"measurement": "binding", "setting": "[6]", "result": "binds"}]}
{"molecule": "B2", "values": [{"measurement": "binding", "setting": "[7]", "result": "binds weakly"}, {"measurement": "binding", "setting": "[8]", "result": "binds weakly"}]}
{"molecule": "B3", "values": [{"measurement": "binding", "setting": "[9]", "result": "no binding"}]}
